Reference: patent US8163766B2, “Beta-secretase modulators and methods of use” (Amgen Inc., priority 2005, dated 2012)
pIC50: −log10 of the molar value. Some results were stated once for a whole list of compounds, not compound by compound.

Protein sequences, listed by entry. Tags and fused reporters are not part of them. Residues count along the entry.
UniProt P56817, 46-501, species assumed: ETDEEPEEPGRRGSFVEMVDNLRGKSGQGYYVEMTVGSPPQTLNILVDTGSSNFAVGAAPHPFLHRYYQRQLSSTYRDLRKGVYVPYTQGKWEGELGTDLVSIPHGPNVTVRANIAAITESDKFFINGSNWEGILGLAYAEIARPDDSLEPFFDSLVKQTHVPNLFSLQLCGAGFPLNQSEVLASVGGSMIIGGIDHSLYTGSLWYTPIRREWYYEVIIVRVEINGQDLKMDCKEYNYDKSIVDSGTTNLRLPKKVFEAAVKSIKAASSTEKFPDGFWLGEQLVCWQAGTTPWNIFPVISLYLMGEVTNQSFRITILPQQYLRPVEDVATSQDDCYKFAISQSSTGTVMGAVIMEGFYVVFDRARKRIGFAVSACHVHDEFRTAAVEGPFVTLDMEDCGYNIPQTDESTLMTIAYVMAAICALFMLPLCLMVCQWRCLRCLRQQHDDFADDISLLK

target: BACE (Homo sapiens, UniProt P56817); test: In Vitro Enzymatic BACE FRET (Fluorescence Resonance Energy Transfer) Assay; assay type: biochemical; conditions: Enzyme 0.2 nM pre-incubated one hour with inhibitor, FRET substrate 50 nM, acetate pH 4.2

pIC50, ≥ 5.30:
Cc1cnc2c(c1)[C@@H](NC[C@@H](O)[C@H](Cc1ccccc1)NC(=O)C1CCOCC1)CC1(CCC1)C2 [Example 502, N-((1S,2R)-2-hydroxy-3-(((5′S)-3′-methyl-5′,8′-dihydro-6′H-spiro[cyclobutane-1,7′-quinolin]-5′-yl)amino)-1-(phenylmethyl)propyl)tetrahydro-2H-pyran-4-carboxamide]
Cc1cnc2c(c1)[C@@H](NC[C@@H](O)[C@H](Cc1cc(F)cc(F)c1)NC(=O)C1CCOCC1)CC(C)(C)C2 [Example 503, N-((1S,2R)-1-((3,5-difluorophenyl)methyl)-2-hydroxy-3-(((5S)-3,7,7-trimethyl-5,6,7,8-tetrahydro-5-quinolinyl)amino)propyl)tetrahydro-2H-pyran-4-carboxamide]
COCCNc1ccc2c(c1)[C@@H](NC[C@@H](O)[C@H](Cc1ccccc1)NC(=O)c1cc(-c3ccccn3)c(=O)n(C3CCCC3)c1)CC(C)(C)C2=O [Example 505, 1′-cyclopentyl-N-((1S,2R)-3-(((1S)-3,3-dimethyl-7-((2-(methyloxy)ethyl)amino)-4-oxo-1,2,3,4-tetrahydro-1-naphthalenyl)amino)-2-hydroxy-1-(phenylmethyl)propyl)-2′-oxo-1′,2′-dihydro-2,3′-bipyridine-5′-carboxamide]
COCCNc1ccc2c(c1)[C@@H](NC[C@@H](O)[C@@H](Cc1ccccc1)NC(=O)c1cc(-c3ccccn3)c(=O)n(C3CCCC3)c1)CC(C)(C)C2=O [Example 507, 1′-cyclopentyl-N-((1R,2R)-3-(((1S)-3,3-dimethyl-7-((2-(methyloxy)ethyl)amino)-4-oxo-1,2,3,4-tetrahydro-1-naphthalenyl)amino)-2-hydroxy-1-(phenylmethyl)propyl)-2′-oxo-1′,2′-dihydro-2,3′-bipyridine-5′-carboxamide]
CCc1cc2c(s1)CC1(CCC1)C[C@@H]2NC[C@@H](O)[C@H](Cc1ccccc1)NC(=O)c1cc(-c2ccccn2)c(=O)n(C(C)C)c1 [Example 508, N-((1S,2R)-3-(((4S)-2-ethyl-4,7-dihydro-5H-spiro[1-benzothiophene-6,1′-cyclobutan]-4-yl)amino)-2-hydroxy-1-(phenylmethyl)propyl)-1′-(1-methylethyl)-2′-oxo-1′,2′-dihydro-2,3′-bipyridine-5′-carboxamide]
Cc1cnc2c(c1)[C@@H](NC[C@@H](O)[C@H](Cc1cc(F)cc(F)c1)NC(=O)[C@@H]1CCOC1)CC1(CCC1)C2 [Example 509, (3R)-N-((1S,2R)-1-((3,5-difluorophenyl)methyl)-2-hydroxy-3-(((5′S)-3′-methyl-5′,8′-dihydro-6′H-spiro[cyclobutane-1,7′-quinolin]-5′-yl)amino)propyl)tetrahydro-3-furancarboxamide]
Cc1cnc2c(c1)[C@@H](NC[C@@H](O)[C@H](Cc1cc(F)cc(F)c1)NC(=O)C1CCOCC1)CC1(CCC1)C2 [Example 510, N-((1S,2R)-1-((3,5-difluorophenyl)methyl)-2-hydroxy-3-(((5′S)-3′-methyl-5′,8′-dihydro-6′H-spiro[cyclobutane-1,7′-quinolin]-5′-yl)amino)propyl)tetrahydro-2H-pyran-4-carboxamide]
CCc1ccc2c(c1)[C@@H](NC[C@@H](O)[C@H](Cc1ccccc1)NC(=O)[C@H]1CN(C(=O)c3cccc(C)c3)CCO1)CC1(CCC1)O2 [Example 511, (2R)-N-((1S,2R)-3-(((4S)-6-ethyl-3,4-dihydrospiro[chromene-2,1′-cyclobutan]-4-yl)amino)-2-hydroxy-1-(phenylmethyl)propyl)-4-((3-methylphenyl)carbonyl)-2-morpholinecarboxamide]
CC1(C)Oc2ncccc2[C@@H]1NC[C@@H](O)[C@H](Cc1ccccc1)NC(=O)c1cc(C2=CC=CCN2)c(=O)n(C2CCCC2)c1 [Example 513, 1′-cyclopentyl-N-((1S,2R)-3-(((3S)-2,2-dimethyl-2,3-dihydrofuro[2,3-b]pyridin-3-yl)amino)-2-hydroxy-1-(phenylmethyl)propyl)-2′-oxo-1,2′-dihydro-2,3′-bipyridine-5′-carboxamide]
CCc1cc2c(s1)CC(C)(C)C[C@@H]2NC[C@@H](O)[C@H](Cc1ccccc1)NC(=O)[C@@H]1CN(C(=O)c2cccc(C)c2)CCO1 [Example 514, (2S)-N-((1S,2R)-3-(((4S)-2-ethyl-6,6-dimethyl-4,5,6,7-tetrahydro-1-benzothien-4-yl)amino)-2-hydroxy-1-(phenylmethyl)propyl)-4-((3-methylphenyl)carbonyl)-2-morpholinecarboxamide]
CCc1cc2c(s1)CC(C)(C)C[C@@H]2NC[C@@H](O)[C@H](Cc1ccccc1)NC(=O)[C@H]1CN(C(=O)c2cccc(C)c2)CCO1 [Example 515, (2R)-N-((1S,2R)-3-(((4S)-2-ethyl-6,6-dimethyl-4,5,6,7-tetrahydro-1-benzothien-4-yl)amino)-2-hydroxy-1-(phenylmethyl)propyl)-4-((3-methylphenyl)carbonyl)-2-morpholinecarboxamide]
CC1(C)Cc2ccc(O[C@H]3CCOC3)cc2[C@@H](NC[C@@H](O)[C@H](Cc2ccccc2)NC(=O)[C@H]2CCC(=O)O2)C1 [Example 516, (2R)-N-((1S,2R)-3-(((1S)-3,3-dimethyl-7-((3S)-tetrahydro-3-furanyloxy)-1,2,3,4-tetrahydro-1-naphthalenyl)amino)-2-hydroxy-1-(phenyl-methyl)propyl)-5-oxotetrahydro-2-furancarboxamide]
CC1(C)Cc2ccc(O[C@H]3CCOC3)cc2[C@@H](NC[C@@H](O)[C@H](Cc2ccccc2)NC(=O)[C@@H]2CCC(=O)O2)C1 [Example 517, (2S)-N-((1S,2R)-3-(((1S)-3,3-dimethyl-7-((3S)-tetrahydro-3-furanyloxy)-1,2,3,4-tetrahydro-1-naphthalenyl)amino)-2-hydroxy-1-(phenyl-methyl)propyl)-5-oxotetrahydro-2-furancarboxamide]
CC1(C)Cc2ccc(O[C@H]3CCOC3)cc2[C@@H](NC[C@@H](O)[C@H](Cc2ccccc2)NC(=O)c2ccc(=O)n(C3CCCC3)c2)C1 [Example 518, 1-cyclopentyl-N-((1S,2R)-3-(((1S)-3,3-dimethyl-7-((3S)-tetrahydro-3-furanyloxy)-1,2,3,4-tetrahydro-1-naphthalenyl)amino)-2-hydroxy-1-(phenylmethyl)propyl)-6-oxo-1,6-dihydro-3-pyridinecarboxamide]
CC1(C)Cc2ccc(O[C@H]3CCOC3)cc2[C@@H](NC[C@@H](O)[C@H](Cc2ccccc2)NC(=O)c2cc(-c3ccccn3)c(=O)n(C3CCCC3)c2)C1 [Example 519, 1′-cyclopentyl-N-((1S,2R)-3-(((1S)-3,3-dimethyl-7-((3S)-tetrahydro-3-furanyloxy)-1,2,3,4-tetrahydro-1-naphthalenyl)amino)-2-hydroxy-1-(phenylmethyl)propyl)-2′-oxo-1′,2′-dihydro-2,3′-bipyridine-5′-carboxamide]
CCc1ccc2c(c1)[C@@H](NC[C@@H](O)[C@H](Cc1ccccc1)NC(=O)[C@@H]1CN(C(=O)N3CCO[C@@H](C)C3)CCO1)CC1(CCC1)O2 [Example 521, (2S)-N-((1S,2R)-3-(((4S)-6-ethyl-3,4-dihydrospiro[chromene-2,1′-cyclobutan]-4-yl)amino)-2-hydroxy-1-(phenylmethyl)propyl)-4-(((2S)-2-methyl-4-morpholinyl)carbonyl)-2-morpholinecarboxamide]
CC(C)(C)Cc1cnc2c(c1)[C@@H](NC[C@@H](O)[C@H](Cc1ccccc1)NC(=O)c1cc(C3CCCCO3)c(=O)n(C3CCCC3)c1)CC1(CCC1)O2 (stereo partly drawn) [Example 522, 1-cyclopentyl-N-((1S,2R)-3-(((4′S)-6′-(2,2-dimethyl-propyl)-3′,4′-dihydrospiro[cyclobutane-1,2′-pyrano[2,3-b]pyridin]-4′-yl)amino)-2-hydroxy-1-(phenyl-methyl)propyl)-6-oxo-5-(tetrahydro-2H-pyran-2-yl)-1,6-dihydro-3-pyridinecarboxamide]
CCc1cc2c(s1)CC(C)(C)C[C@@H]2NC[C@@H](O)[C@H](Cc1ccccc1)NC(=O)[C@H]1CC(=O)N(C2CCC2)C1 [Example 523, (3S)-1-cyclobutyl-N-((1S,2R)-3-(((4S)-2-ethyl-6,6-dimethyl-4,5,6,7-tetrahydro-1-benzothien-4-yl)amino)-2-hydroxy-1-(phenylmethyl)propyl)-5-oxo-3-pyrrolidinecarboxamide]
O=C(N[C@@H](Cc1ccccc1)[C@H](O)CN[C@H]1CC2(CCC2)Oc2ccc(N3CCOCC3)cc21)[C@H]1CC(=O)N(C2CCC2)C1 [Example 524, (3S)-1-cyclobutyl-N-((1S,2R)-2-hydroxy-3-(((4S)-6-(4-morpholinyl)-3,4-dihydrospiro[chromene-2,1′-cyclobutan]-4-yl)amino)-1-(phenylmethyl)propyl)-5-oxo-3-pyrrolidinecarboxamide]
CCc1ccc2c(c1)[C@@H](NC[C@@H](O)[C@H](Cc1cscn1)NC(=O)c1cc(-c3ccccn3)c(=O)n(C3CCCC3)c1)CC1(CCC1)O2 [Example 525, 1′-cyclopentyl-N-((1S,2R)-3-(((4S)-6-ethyl-3,4-dihydrospiro[chromene-2,1′-cyclobutan]-4-yl)amino)-2-hydroxy-1-(1,3-thiazol-4-ylmethyl)propyl)-2′-oxo-1′,2′-dihydro-2,3′-bipyridine-5′-carboxamide]
O=C(N[C@@H](Cc1ccccc1)[C@H](O)CN[C@H]1CC2(CCC2)Oc2ccc(N3CCOCC3)cc21)[C@@H]1CN(C(=O)C2CCOCC2)CCO1 [Example 526, (2S)-N-((1S,2R)-2-hydroxy-3-(((4S)-6-(4-morpholinyl)-3,4-dihydrospiro[chromene-2,1′-cyclobutan]-4-yl)amino)-1-(phenylmethyl)propyl)-4-(tetrahydro-2H-pyran-4-ylcarbonyl)-2-morpholinecarboxamide]
CCc1ccc2c(c1)[C@@H](NC[C@@H](O)[C@H](Cc1ccccc1)NC(=O)[C@@H]1C[C@@H](c3ccccc3)CN(C(=O)c3cccc(C)c3)C1)CC1(CCC1)O2 [Example 527, (3R,5S)-N-((1S,2R)-3-(((4S)-6-ethyl-3,4-dihydrospiro[chromene-2,1′-cyclobutan]-4-yl)amino)-2-hydroxy-1-(phenylmethyl)propyl)-1-((3-methylphenyl)carbonyl)-5-phenyl-3-piperidinecarboxamide]
